Source: patent US6896895B2, “Carotenoid esters, carotenoid-enriched feeds, and methods of pigmenting foods and foodstuffs” (DSM IP Assets B.V., priority 2000, dated 2005)
At least one compound was matched to its structure with a doubt left.

System: egg yolk
Test: Egg yolk colour: reflectance colorimetry and Roche Yolk Colour Fan
Assay type: in vivo, laying hens (ISA Brown)
Conditions: laying hens
Experimental: Pigmentation efficacy was assessed in egg yolk, in the back skin of the broiler carcass, and in broiler shanks by reflectance colorimetry accompanied by visual scoring (Roche Colour Fan). The deposition of the ethyl-β-apo-8′-carotenoate (control) and the other carotenoid esters was determined in egg yolk and in the broiler back skin. In addition, the carotenoid levels in plasma and abdominal fat were measured.
The trials were carried out following the standard experimental design used for egg yolk pigmentation trials at the Roche Research Center for Animal Nutrition (CRNA, F-68305 Village-Neuf, France). Each year in February the pigmentation trials are started with a new flock of layers. At the beginning of the trials the age of the laying hens (192 birds, type ‘ISA Brown’) were as follows:
Preceding the trials the hens were fed a low carotenoid basal diet (produced at the CRNA) without carotenoid supplementation for at least 28 days. […]
Egg yolk color was assessed as described by Steinberg, et al. (Arch. Geflügelk 64 (4), 180-187 (2000)). […] The color hue was visually scored using the Roche Yolk Colour Fan (RYCF, version 1993). […] The color was then measured by means of a Dr. Lange Xeno Color LS 100 spectro-colorimeter with diffuse D65-illumination and a 8° viewing angle.
The color data were expressed as CIE L*a*b*-values including h*(hue) and C* (chroma). […]

CC1=C(/C=C/C(C)=C/C=C/C(C)=C/C=C/C=C(C)/C=C/C=C(\C)C(=O)OC(C)C)C(C)(C)CCC1 [compound (17), isopropyl beta-apo-8′-carotenoate]
Color Fan Value, Pigmentation (trial H-25/98, 5.0 mg/kg feed, Table 9): ++ | Color Fan Value, Pigmentation (trial H-25/99, 5.0 mg/kg feed): ++
